Measurements: patent US7867750B2, “Method for anaerobic degradation of fuel oxygenates and similar compounds” (Rutgers, The State University of New Jersey, priority 2006, dated 2011)

System: MTBE-utilizing culture
Experiment: Effect of methoxylated aromatic compounds as co-substrates on MTBE utilization
Type: cell-based
Settings: MTBE as sole substrate

`COC(C)(C)C` [MTBE, Methyl tert-butyl ether] was tested, and the “incubation time after which MTBE utilization is observed” value was 90 days and the “time for MTBE concentration to decrease to below detection limit” value was at most 150 days.

The amount applied is not stated for every result.
